From PMC4739330 come the findings set out here.

Protein sequences, listed by entry. Tags and fused reporters are not part of them.
UniProt Q06945: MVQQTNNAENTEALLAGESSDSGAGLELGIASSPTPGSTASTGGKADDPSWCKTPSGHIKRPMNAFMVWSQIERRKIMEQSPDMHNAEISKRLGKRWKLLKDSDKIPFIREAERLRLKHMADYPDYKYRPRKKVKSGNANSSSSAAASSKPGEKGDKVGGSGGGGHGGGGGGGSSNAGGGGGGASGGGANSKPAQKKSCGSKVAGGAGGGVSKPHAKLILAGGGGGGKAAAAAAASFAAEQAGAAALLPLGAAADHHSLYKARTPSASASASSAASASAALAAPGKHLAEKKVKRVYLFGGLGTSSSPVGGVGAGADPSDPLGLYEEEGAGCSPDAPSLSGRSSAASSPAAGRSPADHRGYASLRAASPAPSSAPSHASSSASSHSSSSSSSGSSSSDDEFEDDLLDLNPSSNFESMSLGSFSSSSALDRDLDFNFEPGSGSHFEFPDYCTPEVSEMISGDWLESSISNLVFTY
UniProt P35222: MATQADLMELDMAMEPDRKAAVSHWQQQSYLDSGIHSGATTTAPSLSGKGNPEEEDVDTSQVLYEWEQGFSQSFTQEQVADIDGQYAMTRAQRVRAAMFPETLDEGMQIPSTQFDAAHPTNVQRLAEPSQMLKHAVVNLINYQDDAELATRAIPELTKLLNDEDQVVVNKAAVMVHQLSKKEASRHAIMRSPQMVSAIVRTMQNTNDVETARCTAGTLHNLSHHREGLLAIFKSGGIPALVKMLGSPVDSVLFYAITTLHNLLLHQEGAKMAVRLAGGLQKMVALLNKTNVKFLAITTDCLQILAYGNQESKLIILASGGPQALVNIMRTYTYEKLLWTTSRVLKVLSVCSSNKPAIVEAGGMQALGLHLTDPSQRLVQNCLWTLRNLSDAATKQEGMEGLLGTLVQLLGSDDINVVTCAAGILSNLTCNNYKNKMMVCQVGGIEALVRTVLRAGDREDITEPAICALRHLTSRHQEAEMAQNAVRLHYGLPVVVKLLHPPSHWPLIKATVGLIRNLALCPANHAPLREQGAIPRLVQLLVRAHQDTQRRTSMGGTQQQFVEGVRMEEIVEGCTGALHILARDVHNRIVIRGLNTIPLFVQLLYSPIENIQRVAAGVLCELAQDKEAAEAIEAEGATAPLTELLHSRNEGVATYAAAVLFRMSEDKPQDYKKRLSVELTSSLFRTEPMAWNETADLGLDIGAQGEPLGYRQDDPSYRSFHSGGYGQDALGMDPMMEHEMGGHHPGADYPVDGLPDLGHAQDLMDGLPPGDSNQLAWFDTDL

In the experiment the target is Sox4 (human (endogenous in Ishikawa, Hec251 and Hec6)) (UniProt Q06945). Put plainly: co-IP; lysates (TNE buffer: 10 mM Tris-HCl pH 7.6, 150 mM NaCl, 1 % NP-40, 1 mM EDTA) of Ishikawa, Hec251 and Hec6 cells cultured in STK2 for 5 days; precipitated with anti-Sox4 antibody and Protein G-Sepharose; blotted with anti-β-catenin and anti-Sox4.

No constants are given. Whether binding was seen depends on the method and setting. In cells and extracts the contact can be indirect. Some binding calls cover weakened binding; strength is not graded here.

β-catenin (from UniProt P35222 1-781): the binding result is “binds weakly”.
